# From article PMC10178565
# The chains behind the UniProt entries cited, without tags or fusion partners. Where a name states a change or a piece, a line headed by the entry shows the natural chain unless it says otherwise.
# UniProt P43406: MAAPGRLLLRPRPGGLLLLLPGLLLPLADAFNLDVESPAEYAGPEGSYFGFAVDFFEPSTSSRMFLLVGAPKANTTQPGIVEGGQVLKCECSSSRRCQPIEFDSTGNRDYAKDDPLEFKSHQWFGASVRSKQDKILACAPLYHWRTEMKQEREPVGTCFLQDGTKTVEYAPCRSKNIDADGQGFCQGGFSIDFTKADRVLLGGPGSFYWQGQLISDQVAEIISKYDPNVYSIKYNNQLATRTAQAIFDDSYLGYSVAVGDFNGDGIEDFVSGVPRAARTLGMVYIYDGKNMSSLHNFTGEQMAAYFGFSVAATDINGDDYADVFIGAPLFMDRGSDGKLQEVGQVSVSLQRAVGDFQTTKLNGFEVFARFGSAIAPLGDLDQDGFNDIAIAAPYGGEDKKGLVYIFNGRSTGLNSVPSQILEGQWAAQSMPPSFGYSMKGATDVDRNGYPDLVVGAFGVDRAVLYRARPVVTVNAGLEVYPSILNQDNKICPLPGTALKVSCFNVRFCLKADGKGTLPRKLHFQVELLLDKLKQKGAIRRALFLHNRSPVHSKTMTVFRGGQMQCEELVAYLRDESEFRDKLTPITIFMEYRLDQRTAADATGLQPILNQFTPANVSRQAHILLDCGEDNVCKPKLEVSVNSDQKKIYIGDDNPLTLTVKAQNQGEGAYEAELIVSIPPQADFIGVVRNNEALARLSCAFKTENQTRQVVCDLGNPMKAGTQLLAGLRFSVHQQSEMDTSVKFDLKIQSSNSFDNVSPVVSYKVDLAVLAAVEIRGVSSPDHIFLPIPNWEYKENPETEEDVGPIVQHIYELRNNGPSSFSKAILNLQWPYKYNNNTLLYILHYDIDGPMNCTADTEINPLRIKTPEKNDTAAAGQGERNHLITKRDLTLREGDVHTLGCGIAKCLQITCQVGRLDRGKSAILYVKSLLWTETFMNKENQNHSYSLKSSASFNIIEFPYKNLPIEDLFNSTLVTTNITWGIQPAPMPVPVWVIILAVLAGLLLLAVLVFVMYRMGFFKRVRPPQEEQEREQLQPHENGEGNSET
# UniProt O70309: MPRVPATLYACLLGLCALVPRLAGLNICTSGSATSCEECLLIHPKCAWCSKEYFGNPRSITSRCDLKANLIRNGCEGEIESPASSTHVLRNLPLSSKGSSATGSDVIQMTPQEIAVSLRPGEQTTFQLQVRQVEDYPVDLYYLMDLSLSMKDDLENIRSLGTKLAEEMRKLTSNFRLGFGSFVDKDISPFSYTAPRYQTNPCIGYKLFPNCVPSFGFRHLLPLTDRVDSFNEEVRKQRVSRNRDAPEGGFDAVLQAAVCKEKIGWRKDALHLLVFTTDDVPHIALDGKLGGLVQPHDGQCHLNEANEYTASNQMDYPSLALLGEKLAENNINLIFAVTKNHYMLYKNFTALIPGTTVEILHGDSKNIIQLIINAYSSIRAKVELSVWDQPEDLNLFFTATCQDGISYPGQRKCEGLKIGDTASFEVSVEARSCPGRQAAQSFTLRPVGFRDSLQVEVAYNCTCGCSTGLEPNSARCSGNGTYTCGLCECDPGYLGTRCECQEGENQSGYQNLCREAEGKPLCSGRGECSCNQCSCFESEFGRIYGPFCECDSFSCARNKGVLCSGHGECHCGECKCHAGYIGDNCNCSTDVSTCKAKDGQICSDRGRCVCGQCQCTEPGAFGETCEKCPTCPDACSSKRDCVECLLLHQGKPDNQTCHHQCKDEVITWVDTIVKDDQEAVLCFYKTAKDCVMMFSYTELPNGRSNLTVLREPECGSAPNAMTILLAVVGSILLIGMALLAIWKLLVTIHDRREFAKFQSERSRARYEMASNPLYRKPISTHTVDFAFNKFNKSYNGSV
# Results are given in words; binding and its absence hold for the method and conditions named. In cells and extracts the contact can be indirect. Some binding calls cover weakened binding; strength is not graded here.
# B1: Thy1/CD90 (protein, UniProt P01831 20-131)
# chain: QKVTSLTACLVNQNLRLDCRHENNTKDNSIQHEFSLTREKRKHVLSGTLGIPEHTYRSRVTLSNQPYIKVLTLANFTTKDEGDYFCELQVSGANPMSSNKSISVYRDKLVKC
# Molecular target: integrin αVβ5 (mouse (endogenous in hippocampus)) (UniProt P43406+O70309)
# Assay: co-IP; lysate incubated with Protein A/G agarose and mouse anti-integrin alpha V/beta 5 antibody (sc-81632) overnight at 4 °C, then immunoblotted; hippocampus of MPTP (M), MPTP+exercise (ME) and ME+FNDC5 mice
binder,measurement,value
B1,binding,binds
